Measurements from patent publication US20220088053.
Protein sequences can lack the tags named with them.

Molecular target: T1, USB1 wild-type (Homo sapiens) (UniProt Q9BQ65)
T1 sequence: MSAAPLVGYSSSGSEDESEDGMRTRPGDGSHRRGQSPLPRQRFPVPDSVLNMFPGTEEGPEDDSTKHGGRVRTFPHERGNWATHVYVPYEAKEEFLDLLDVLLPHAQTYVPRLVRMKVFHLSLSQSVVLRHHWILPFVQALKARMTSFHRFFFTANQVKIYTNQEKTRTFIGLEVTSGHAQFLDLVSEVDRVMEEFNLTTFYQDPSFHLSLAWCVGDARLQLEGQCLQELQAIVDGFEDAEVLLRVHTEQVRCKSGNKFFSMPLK
Experiment: enzyme reaction in vitro
Settings: removes single 3' A; 5 uM USB1, 1 uM RNA, 37 C, 20 mM Hepes pH 7.4, 100 mM NaCl, 1 mM EDTA, 1 mM TCEP; purified recombinant protein; protein details: His (pColdI vector, E. coli Rosetta2); label: 5'-FAM

UCCCUGAGACCCUUUAACCUGUGA [miR125a-native]
activity on this sequence: active
